Measurements published in PubChem BioAssay AID493014 (National Center for Advancing Translational Sciences (NCATS), 2011).
The campaign covered roughly 340,000 compounds. About 170 (0.05%) were called active. This list was built around the results that the source calls inconclusive (neither active nor inactive); the mix of calls is not that of the screen. Calls follow the shape of the dose curve; as a rule, active = well fitted inhibition curve with a large enough effect in the signal ratio, with a control signal flat (not every such curve was filed as active); inconclusive = small, poorly fitted or top-dose-only effect, or effect the other way, or a change in a side signal; inactive = flat fitted curve, though single readings scatter; the % refers to the signal ratio. A potency beside an inconclusive call is a rough fit, not a confirmed value.

Test: qHTS Assay to Find Inhibitors of Chronic Active B-Cell Receptor Signaling;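 as to activity change, negative = inhibition: plate controls were basal doxycycline-induced cells for no effect and cells given 10 µM MG132 for full effect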
Settings: ABC-DLBCL IkBa-CBG/CBR reporter, luminescence ratio (green luciferase fused to IkBa over red control in TMD8 lymphoma cells), 4 h; activity change, negative = inhibition: at 46.1 µM (top of the series) unless noted
Procedure, shortened: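 Concentration-response series (up to 46 uM) were applied to TMD8 dual-reporter cells for 4 h at 37C with doxycycline. Green/red ratio, after filter-overlap correction, defined %Activity; red signal alone was normalised to basal cells and zero luminescence.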
Potency is read from the fitted curve at half-maximal effect.

Compound	activity change, negative = inhibition	Potency
O=C1C=C(c2ccc3c(c2)OCO3)C[C@@H](c2ccc(F)cc2)C1	inconclusive: -0.277%	–
CNCC(O)Cn1c2c(c3ccccc31)CCCC2 (configuration not stated)	inconclusive: -17.7%	–
CCOC(=O)Cc1csc(NC(=O)CC)n1	inconclusive: -1.05%	–
NC(=O)c1cc(N2C(=O)C=CC2=O)ccc1Cl	inconclusive: -17.6%	–
CS(=O)(=O)c1ccccc1C(=O)Nc1ccc(-c2nc3ccccc3[nH]2)cc1	inconclusive: 3.69%	–
O=C(Cc1cccs1)NCCc1ccc(F)cc1	inconclusive: 3.64%	–
C=CCNc1sc(C(=O)c2cccs2)c(N)c1C#N	inconclusive: 14.5%	–
CCCCn1c(CN2CCN(c3cccc(Cl)c3)CC2)nc2c1c(=O)[nH]c(=O)n2C	–	inconclusive: 16.4 µM [falling, partial curve, poor fit]
COC(=O)c1cn(CC(=O)NCc2ccco2)c2ccccc12	inconclusive: -0.269%	–
Cc1nc(Nc2cccc(O)c2)c2oc3ccccc3c2n1	inconclusive: -12.3%	–
COc1ccc(N2CSC3=C(C#N)C(c4cccs4)CC(=O)N3C2)cc1 (configuration not stated)	–	inconclusive: 35.5 µM [falling, single point]
O=C(NNC(=S)Nc1ccccc1)Nc1ccccc1	–	inconclusive: 15.8 µM [falling, single point]
COc1ccccc1N(CC(=O)NCCSCc1cccc(C)c1)S(=O)(=O)c1ccccc1	inconclusive: 2.22%	–
COc1ccc(CCN(C(=O)C(F)(F)F)C(C(=O)NC2CCCC2)c2cccs2)cc1OC (configuration not stated)	inconclusive: -0.589%	–
O=C(O)c1cc(Br)ccc1NN=C1CCCCC1	inconclusive: -8.7%	–
COCCCNC(=S)NNC(=S)Nc1ccccc1	–	inconclusive: 20 µM [falling, single point]
CC(=O)Nc1ccc(S(=O)(=O)NNC(=O)c2cccc3ccccc23)cc1	–	inconclusive: 3.66 µM [rising, full curve, poor fit]
COc1ccc(-c2csc(C3=C(O)CN(CCCN4CCCC4=O)C3=N)n2)cc1OC	–	inconclusive: 25.1 µM [falling, single point]
O=C(COc1cccc2c1CCN(Cc1ccccc1F)C2=O)N1CCOCC1	–	inconclusive: 22.4 µM [falling, single point]
Cn1c(SCC(=O)N2CCCCCC2)nc2c(c1=O)SCC2	inconclusive: 8.99%	–
Cn1cc(/C=C(\NC(=O)c2ccccc2Cl)C(=O)N2CCOCC2)c2ccccc21	inconclusive: -9.85%	–
C[C@H](CO)N1C[C@H](C)[C@@H](CN(C)Cc2ccc3c(c2)OCO3)Oc2c(NC(=O)C3CCCCC3)cccc2C1=O	inactive	–

2 consecutive compounds already listed, for reference:
Compound	activity change, negative = inhibition	Potency
Cn1cc(/C=C(\NC(=O)c2ccccc2Cl)C(=O)N2CCOCC2)c2ccccc21	inconclusive: -9.85%	–
C[C@H](CO)N1C[C@H](C)[C@@H](CN(C)Cc2ccc3c(c2)OCO3)Oc2c(NC(=O)C3CCCCC3)cccc2C1=O	inactive	–
